For at least one compound, name, drawing or mass did not settle the structure.
Test system: GABAA receptor ion channel subunit combinations α1β3γ2s, α2β3γ2s, α3β3γ2s or α5β3γ2s
Experiment: HTS of LOPAC library on the panel of GABAA cell lines, fluorescent membrane potential cell-based assay
Settings: LOPAC (Sigma 1280) screen on panel of four GABAA cell lines
Method: Production of cell lines: Each gene of interest was subcloned into an independent mammalian expression vector containing a detection tag and drug selectable marker and transfected into HEK293T and CHO cells cultured using DMEM supplemented with 50 mL fetal bovine serum, a 4 mM L-Glutamine, 10 mM Hepes pH 7.4. After 1 to 3 days cells were transferred to fresh media containing mild selective pressure for 7 to 14 days. On the day of the experiment, each well of four to six 24-well tissue culture plates was plated with 200 ul to 400 ul of transfected cells at 1.25 to 2×10^6 cells/mL in serum-free media and exposed to differentially-labeled signaling probes that can hybridize with the expression products. […]
Cell-based Assays: Functional testing using fluorescent cell-based assays in the absence of any antibiotic-mediated selectable pressure was performed over time (typically for at least 4 to 6 weeks) to identify inherently stable clones. Commonly available fluorescent membrane potential and calcium flux kits and reagents were used for fluorescent cell-based assays in 96-well and 384-well plates using the Molecular Devices FLIPR 3 and Hamamatsu FDSS 6000 plate readers as described (Shekdar 2011; Shekdar and Sawchuk 2012; Shekdar and Venkatachalan 2012, Shekdar 2017). […] Currents were measured using the whole-cell configuration. […]

## CCOC(=O)c1cnc2c(cnn2CC)c1NN=C(C)C [Etazolate]
  HTS hit: activated at least one of the GABAA cell lines at least as much as GABA itself: identified
